Structures can show the parent of a compound that is named as a salt. This is one part of the list. Many values rest on one well or one pass, so single values are uncertain.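 The strains were three CDC resistance-bank clinical C. auris isolates from clades III, IV and I, cultured in RPMI-1640 at 35°C. Growth was background-corrected OD600 versus vehicle-only wells on the same plate. A hit needed >50% inhibition in two or more strains plus a plate-corrected B-score exceeding 0.1.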

This note sets out measurements from the supplement of paper PMC10470496.

Holding throughout (assay): growth relative to vehicle control (OD600 ratio) (fraction); higher = less inhibition
Common to all, as to conditions: 24 h

Test [1] has as its system C. auris AR-384.
The test system of test [2] is C. auris AR-386.
The subject of test [3] is C. auris AR-387.

Turning to `C[N+](C)(C)CCCCCCCCCC[N+](C)(C)C` [Decamethonium Bromide], the growth in test [1] (1 µM) is 1.14; in test [1] (10 µM), 1.23; in test [2] (1 µM), 1.4; in test [2] (10 µM), 1.3; in test [3] (1 µM), 1.43; in test [3] (10 µM) it was 1.4.
Take `NCC1(CC(=O)O)CCCCC1` [Gabapentin]: the growth in test [1] (1 µM) amounted to 1.36; in test [1] (10 µM), 1.05; in test [2] (1 µM), 1.12; in test [2] (10 µM) it was 1.29; in test [3] (1 µM) it was 1.17; in test [3] (10 µM) it was 1.15.
In the case of `CN1C(=O)CCS(=O)(=O)C1c1ccc(Cl)cc1` (stereo not given) [Chlormezanone], the growth in test [1] (1 µM) was found to be 1.15; in test [1] (10 µM), 1.05; in test [2] (1 µM) it was 0.95; in test [2] (10 µM), 1.07; in test [3] (1 µM), 0.76; in test [3] (10 µM) it was 1.13.
Turning to `NCC(O)c1ccc(O)cc1` (racemic) [(+,-)-Octopamine HCl], the growth in test [1] (1 µM) stood at 0.89; in test [1] (10 µM), 0.74; in test [2] (1 µM), 0.62; in test [2] (10 µM) it was 0.64; in test [3] (1 µM), 0.76; in test [3] (10 µM), 0.66.
As to `CN[C@@H]1[C@@H](O)[C@@H](O[C@@H]2[C@@H](O)[C@H](O[C@H]3O[C@H](CN)CC[C@H]3N)[C@@H](N)C[C@H]2N)OC[C@]1(C)O.CN[C@@H]1[C@@H](O)[C@@H](O[C@@H]2[C@@H](O)[C@H](O[C@H]3O[C@H]([C@@H](C)N)CC[C@H]3N)[C@@H](N)C[C@H]2N)OC[C@]1(C)O.CN[C@@H]1[C@@H](O)[C@@H](O[C@@H]2[C@@H](O)[C@H](O[C@H]3O[C@H]([C@@H](C)NC)CC[C@H]3N)[C@@H](N)C[C@H]2N)OC[C@]1(C)O` [Gentamicin Sulfate], the growth worked out at 0.92 in test [1] (1 µM); 0.76 in test [1] (10 µM); 0.75 in test [2] (1 µM); 1.08 in test [2] (10 µM); 0.8 in test [3] (1 µM); 0.98 in test [3] (10 µM).
